Data: publication PMC7078208, “Interaction of SHP-2 SH2 domains with PD-1 ITSM induces PD-1 dimerization and SHP-2 activation” (Communications Biology, 2020)
These are yes or no findings as the source states them, for the method shown. For part of these data: In cells and extracts the contact can be indirect.

Columns and labels:
[1] = target: T1, Monophosphoryl ITIM peptide of PD-1 (ITIM-pY223) (human); experiment: condition: 320 nM (the maximum SHP-2 concentration tested); SPR; Biacore 3000; phosphopeptide immobilised on a CM5 chip by amine coupling; SHP-2-full-length at 0, 20, 40, 80, 160, 320 nM; HBS-P with 6.6 mM phosphate and 10 mM DTT, pH 7.4; 900 s association, 900 s dissociation; both purified
T1 sequence (peptide, phosphotyrosine (pY) at PD-1 Y223, position 14 of the peptide): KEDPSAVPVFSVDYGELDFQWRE

[2] = target: PD-1 Y248F NanoBiT fusions in HEK-293 cells with kinase-active Fyn (human) (UniProt Q15116); experiment: split reporter; NanoBiT in live HEK-293 cells co-transfected with PD-1-LgBiT, PD-1-SmBiT, SHP-2 and Fyn (kinase active or inactive); luminescence 30 h after transfection
[3] = target: T2, t-SHP-2 (SHP-2 amino acids 1-225, tandem N-SH2 and C-SH2 domains) (UniProt Q06124); experiment: native gel or EMSA; 2 uM t-SHP-2 mixed with phosphopeptide at various molar ratios in 50 mM HEPES, 100 mM NaCl, pH 7.4, 1 h at room temperature; Native PAGE at 4 C, 8-16% Tris-Glycine gel, Coomassie stain; both purified
T2 sequence: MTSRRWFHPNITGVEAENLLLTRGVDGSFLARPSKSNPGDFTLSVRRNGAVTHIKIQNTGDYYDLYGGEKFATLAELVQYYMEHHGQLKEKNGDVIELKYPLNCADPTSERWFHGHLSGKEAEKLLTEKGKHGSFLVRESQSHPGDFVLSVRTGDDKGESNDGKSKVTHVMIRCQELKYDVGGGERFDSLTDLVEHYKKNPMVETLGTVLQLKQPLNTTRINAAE

SHP-2 wild-type full-length, purified recombinant protein (from UniProt Q06124 1-593) (enzyme)
binding [1]: no binding

PD-1 Y248F NanoBiT fusions in HEK-293 cells with kinase-active Fyn (from UniProt Q15116 25-288) (receptor)
binding [2]: no binding

KEDPSAVPVFSVDYGELDFQWRE (phosphotyrosine (pY) at PD-1 Y223, position 14 of the peptide) [Monophosphoryl ITIM peptide of PD-1 (ITIM-pY223)]
binding [3]: no binding
